Laboratory results reported in US8883512B1, “Method for diagnosing gestational diabetes, preeclampsia, and fetal growth restriction” (priority 2011, dated 2014).

System: pregnant Sprague-Dawley rats
Assay: Serum retinoid profiles by HPLC in pregnant rats treated with streptozotocin
Assay type: in vivo, rat
[1] = STZ 75 mg/kg, n = 10, control 0.13

CN(N=O)C(=O)N[C@H]1C(O)O[C@H](CO)[C@@H](O)[C@@H]1O (mixture of isomers) [STZ, streptozotocin]
Retinol, median (STZ 75 mg/kg I.P., day 20, n = 10, control 1.04): 0.45 µmol/L | All Trans RA, range (STZ 75 mg/kg, n = 9): 0.0079 to 0.1065 µmol/L | All Trans RA, median (STZ 75 mg/kg, n = 9, control 0.0075): 0.0155 µmol/L | % Ester, range (STZ 75 mg/kg, n = 10): 14.4-83.6% | Ester/ROL ratio, range (STZ 75 mg/kg, n = 10): 0.22-10.74 | Retinol, range (STZ 75 mg/kg, n = 10): 0.16 to 0.68 µmol/L | Total Ester, range (STZ 75 mg/kg, n = 10): 0.09 to 1.75 µmol/L | Total serum Vitamin A, range (STZ 75 mg/kg, n = 10): 0.58 to 2.10 µmol/L | Ester/ROL ratio, median [1]: 0.33 | Total Ester, median [1]: 0.22 µmol/L | Total serum Vitamin A, median (STZ 75 mg/kg, n = 10, control 1.24): 0.78 µmol/L | % Ester (retinyl esters as fraction of total vitamin A), median (STZ 75 mg/kg, n = 10, control 11.25): 23.96%
